Some results were stated once for a whole list of compounds, not compound by compound.
T1: FcγRIIa on platelets (Homo sapiens, UniProt P12318)
T1 construct: endogenous in cells; host or cells: platelets from subjects' blood samples, formaldehyde-fixed or non-fixed
T1 sequence (P12318 34-317): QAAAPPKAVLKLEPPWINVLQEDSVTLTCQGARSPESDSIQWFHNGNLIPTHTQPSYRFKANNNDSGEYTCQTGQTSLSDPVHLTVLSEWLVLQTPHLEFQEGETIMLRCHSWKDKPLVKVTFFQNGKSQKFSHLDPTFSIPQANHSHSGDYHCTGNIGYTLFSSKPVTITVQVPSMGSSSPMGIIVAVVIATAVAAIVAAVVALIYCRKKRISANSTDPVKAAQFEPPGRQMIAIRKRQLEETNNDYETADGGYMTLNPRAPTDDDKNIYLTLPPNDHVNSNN

B1: FcYRIIa-5G1: monoclonal antibody binding FcγRIIa; heavy chain SEQ ID NO 4, light chain SEQ ID NO 9 (antibody, V domains shown)
VH: EVQLQESGPELVKPGASVKISCKASGYTFTTYYIHWVKQRPGQGLEWIGWIFPGSSNTFYNEKFKGKATLTADTSAITAYMQLNSLTSEDSAVYFCSRYYYDYGYWGQGTLVTVSA
VL: ENVLTQSPAIMSASPGEKVTMTCSASSSVRYMQWYQQKSNTSPKLWIYDTSKLASGVPGRFSGSGSGNSYFLTISSMEAEDVATYHCFQGSGYPLTFGGGTKLEIK
B2: FcYRIIa-11F9: monoclonal antibody binding FcγRIIa; heavy chain SEQ ID NO 14, light chain SEQ ID NO 19 (antibody, V domains shown)
VH: EVQLQESGPELVKPGASVRISCKASGYTFTNSYMHWVKQRPGQGLEWIGWIYPENINTYYNEKFKGKATLTADRSSSTAYMQLNSLASEDSAVYFCARFYYGFGYWGQGTTLTVSS
VL: DIVMTQSHKFMSTSVGDRVIITCKASQNVISAVAWYQQKPGHSPKLLIYWASTRHTGVPDRFTGSGSGTDFTLTINSVQSEDLADYFCQQYGRYPYTFAGGTKLEIK

Biological target: T1, FcγRIIa on platelets
Assay: Flow cytometry binding/quantification of FcγRIIa on fixed and non-fixed platelets
Conditions: fluorochrome labeled antibodies; selection criterion met by the two clones
Source text: One objective was to identify an antibody that was capable of quantifying FcγRIIa on the surface of platelets that were fixed, similar to quantification of FcγRIIa on non-fixed platelets. To make this assessment, selected antibodies were fluorochrome labeled. An objective was to identify a clone that could quantify FcγRIIa on the surface of fixed platelets within 10% of the quantification of previously-known antibodies on non-fixed platelets. Based on these experiments, two clones were identified, they produced the antibodies FcYRIIa-5G1 and FcYRIIa-11F9 described above.
Lysis of red blood cells can also be performed by the addition of 3% acetic acid (120 μl) to 5 μl of blood. • Incubate for 15 minutes • Add 800 μl PBS • Centrifuge for 2 minutes at 1,200 g • Decant liquid • Re-suspend platelet pellet in 1,000 μl PBS • Centrifuge for 2 minutes at 1,200 g • Decant liquid • Re-suspend platelet pellet in 1,000 μl PBS • Centrifuge for 2 minutes at 1,200 g • Re-suspend platelet pellet in 800 μl PBS with 0.2% BSA and store platelets at room temperature for at least 1 hour before assay (blocking step) • Assay tube final volume=35 μl, adding: • 5 μl of re-suspended platelet • 0.5 μg of 5G1-PE antibody • 2 μl of CD42bPECy5 (Becton Dickinson) • QS with PBS/BSA 0.2% • Incubate antibodies and platelets for 1 hours at room temperature • Dilute with 500 μl of PBS • Analyze with flow cytometry […]

Molecule	quantification of FcγRIIa on fixed platelets relative to previously-known antibodies on non-fixed platelets
B1	≤ 10%
B2	≤ 10%

— patent publication US20260055190A1, “ANTIBODIES FOR PLATELET FCyRIIA AND RELATED METHODS OF USE” (UNIVERSITY OF VERMONT AND STATE AGRICULTURAL COLLEGE, priority 2022, published 2026)
